This passage reports cell number change and AC50 results from PubChem BioAssay AID2685 (National Center for Advancing Translational Sciences (NCATS), 2010).

As a reminder, the AC50 is the concentration giving half of the maximal activity seen. Low values mean activity at low concentration, high ones activity only at high concentration.

The list shows a part of the results. The main result of the screen is listed elsewhere. These columns were measured beside it and carry no call. Compounds called inactive in the main read-out are mostly missing here. Potencies come from curve fits of mixed quality, noted in brackets.

This test is described as follows: qHTS Assay for Lipid Storage Modulators in Drosophila S3 Cells.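 As to cell number change: cells counted by Cell Tracker Red CMTPX staining in the red channel.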 The following applies: BODIPY lipid droplet fluorescence, 18-24 h; for cell number change: measured here: cell count max response, cells fed with added oleic acid. In short, it runs like this: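 Drosophila S3 cells got compounds at several concentrations plus oleic acid (400 uM solution). Laser-scanning cytometry with 488 nm excitation read lipid droplets at 500-530 nm and cells at 575-640 nm. Percent activity was relative to 20 uM Triacsin C.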
On the technique in general: Quantitative high-throughput screening tests each substance at several concentrations.

Where [1] appears, read: measured here: lipid fluorescence (Fed channel) AC50, cells fed with added oleic acid.
Setting [2] is: measured here: cell number channel AC50, cells fed with added oleic acid.

On to `O=C(NCCS(=O)(=O)NCc1ccc2c(c1)OCO2)c1ccccc1`, for which the cell number change turned out to be 17.5%.
For `Cc1ccc(C)c(OCCC(=O)OCC(=O)N2CCN(c3ccccc3)CC2)c1`, the cell number change was 26.2%. Moreover, the AC50 under setting [1] is 11.6 µM [falling, single point].
As to `Cc1ccc(C2(C)NC(=O)N(CC(=O)N3CCN(S(=O)(=O)c4cccc(F)c4)CC3)C2=O)cc1` (stereo not drawn), the cell number change was found to be 20.7%. Besides, under setting [1], the AC50 is 1.84 µM [rising, partial curve].
For the compound `Cc1oc2ccc(OCc3ccc(Br)cc3)cc2c1C(=O)O`, the cell number change is -55.7%. Besides, the AC50 under setting [2] was 23.1 µM [falling, single point]. In addition, under setting [1], the AC50 was 16.4 µM [falling, partial curve, poor fit].
On to `CC(C)(C)c1nnc2sc(SCCN3C(=O)c4ccccc4C3=O)nn2c1=O`, for which the cell number change was -1.56%.
With `O=C(Oc1c(Br)cc([N+](=O)[O-])cc1Br)c1cccnc1`, the cell number change is -23%. The AC50 under setting [1] was 10.3 µM [falling, partial curve].
Turning to `Cc1c(C(=O)NCCc2ccccc2)oc2ccccc12`, the cell number change was 4.5%.
In the case of `C=CCNc1nnc(Cl)c2ccccc12`, the cell number change came to 12.2%. Also, the AC50 under setting [1] is 23.1 µM [rising, single point].
Regarding `NC(=O)Cn1nc([N+](=O)[O-])nc1Oc1ccccc1F`, the cell number change stood at 2.54%.
On the same count and under the same terms, under `CCOc1ccc(C(=O)CCC(=O)NC(C)C(=O)OC)cc1` (stereo not drawn) stands 25.8%.
Regarding `O=C(C1CCCN(S(=O)(=O)c2cc(Cl)ccc2Cl)C1)N1CCCCCC1` (stereo not drawn), the cell number change is -13.6%. Also, under setting [1], the AC50 was 8.2 µM [falling, partial curve, poor fit].
Regarding `CS(=O)(=O)c1ccc2nc(NC(=O)C3CCCCC3)sc2c1`, the cell number change worked out at 2.37%. Further, the half-maximal activity concentration (AC50) under setting [1] was 3.26 µM [rising, partial curve, poor fit].
Consider `CCOc1cccc(N(C(=O)c2ccco2)C(C(=O)NC2CCCC2)c2cccnc2)c1` (stereo not drawn), for which the cell number change was determined as 9.46%.
For the compound `O=C(COC(=O)/C=C/c1ccccc1Cl)NCc1ccco1`, the cell number change was -2.71%. For the same compound, under setting [1], the AC50 is 32.6 µM [rising, single point].
With `CN(CCc1ccccn1)C(=O)CC1C(=O)NCCN1Cc1cccc(F)c1` (stereo not drawn), the cell number change was -13.5%. In addition, the AC50 under setting [1] was 0.146 µM [falling, full curve, poor fit].
`COCC(=O)Nc1c(C(=O)Nc2ccc3c(c2)OCO3)oc2ccccc12`: the cell number change was 9.85%. Moreover, the AC50 under setting [1] is 0.116 µM [falling, full curve, poor fit].
For the compound `CC(=O)C1=C(O)C(=O)N(c2ccc(O)cc2)C1c1ccc(F)cc1` (stereo not drawn), the cell number change came to 11.6%.
As to `CCc1cc(-c2[nH]ncc2-c2ccc([N+](=O)[O-])cc2)c(O)cc1OC`, the cell number change is -52.9%. The AC50 under setting [2] is 29.1 µM [falling, single point].
Turning to `Cc1sc(NC(=O)c2ccc3ncsc3c2)c(C(N)=O)c1C`, the cell number change was found to be 35.1%. The AC50 under setting [2] is 1.16 µM [rising, full curve, poor fit].
Consider `COc1cccc(NC(=O)C(OC(=O)c2ccc([N+](=O)[O-])o2)c2ccccc2)c1` (stereo not drawn), for which the cell number change was -1%. Besides, under setting [1], the AC50 is 1.84 µM [rising, partial curve].
`CCn1c(C)nc([N+](=O)[O-])c1Sc1ccc(F)cc1`: the cell number change is -10.4%. Under setting [1], the AC50 was 29.1 µM [falling, single point].
Regarding `NS(=O)(=O)c1ccc(CCNCc2cc(Br)ccc2OCc2ccccc2F)cc1`, the cell number change is -34.3%. Besides, the AC50 under setting [2] is 18.4 µM [falling, single point]. In addition, the AC50 under setting [1] is 25.9 µM [falling, single point].
Turning to `O=S(=O)(c1ccc2oc3ccc(S(=O)(=O)N4CCCCC4)cc3c2c1)N1CCCCC1`, the cell number change came to 14%. Moreover, the AC50 under setting [1] is 6.51 µM [rising, full curve, poor fit].
Turning to `Cc1nnc(NC(=O)c2c(F)c(F)c(F)c(F)c2F)s1`, the cell number change is -10%. For the same compound, the AC50 under setting [1] is 18.4 µM [falling, single point].
Regarding `COc1ccc([N+](=O)[O-])cc1NC1CCN(C(=O)c2cccs2)CC1`, the cell number change came to 5.95%.
As to `CCCn1cnc2c(oc3ccccc32)c1=O`, the cell number change stood at 10.6%.
Consider `Cc1ccc(/C=N/n2c(C)nc3ccccc3c2=O)o1`, for which the cell number change was -96.9%.
Consider `COc1ccc(C2CC(=O)c3cc(OC)c(OC)cc32)cc1OC` (stereo not drawn), for which, under setting [1], the AC50 was 0.731 µM [rising, single point].
For `C=C(C(=O)Oc1c(C(C)(C)C)cccc1C(C)(C)C)c1ccccc1`, the cell number change is -7.24%. Under setting [2], the AC50 is 0.259 µM [falling, full curve]. The AC50 under setting [1] is 5.17 µM [falling, partial curve, poor fit].
Take `CCOc1ccc(NC(=O)CSc2nnc(C)n2CC2CCCO2)cc1` (stereo not drawn): under setting [1], the AC50 was 1.46 µM [rising, partial curve].
`CC(=O)Nc1cccc(Oc2ccc(-c3noc(C)n3)cc2)c1`: the cell number change was -4.61%. Further, under setting [1], the AC50 is 2.59 µM [rising, full curve].
Turning to `COc1ccc(-n2c(C)cc(C3=NNC(=NC4CC4)SC3)c2C)cc1`, the AC50 runs as follows: under setting [2], 5.17 µM [rising, single point]; under setting [1], 3.66 µM [rising, single point].
Consider `Cc1cccc(N2CCN(C(=O)C3CCN(c4ncnc5c4nc4n5CCCCC4)CC3)CC2C)c1` (stereo not drawn), for which the cell number change was -29%.
Take `COc1cc(C(=O)N2CCN(S(=O)(=O)c3ccc(F)cc3)CC2)cc(OC)c1OC`: the cell number change was 14.1%. Also, the AC50 under setting [1] is 16.4 µM [rising, single point].
For the compound `CC(=O)Nc1cc(-c2nn(C)c(=O)c3ccccc23)ccc1N1CCOCC1`, the cell number change was found to be 77.3%. For the same compound, under setting [2], the AC50 is 18.4 µM [rising, partial curve, poor fit].
With `COc1ccc(C(=O)N(C)Cc2ccccn2)cc1OC1CCN(C(C)C)CC1`, the cell number change amounted to 4.05%.
As for `CCOc1nc(N2CCCCC2)nc(-n2cc(-c3ccccc3)nn2)n1`, the cell number change is -1.19%.
Take `CC1CCc2c(sc(NC(=O)c3c([N+](=O)[O-])cnn3C)c2C(N)=O)C1` (stereo not drawn): the cell number change was determined as 5.67%. In addition, the AC50 under setting [1] was 29.1 µM [rising, single point].
With `CC(C)CN(C(=O)COC(=O)c1nc(Cl)ccc1Cl)C1CCS(=O)(=O)C1` (stereo not drawn), the cell number change is 7.17%.
In the case of `CCOC(=O)N1CCN(C(=O)c2ccc(Cn3c(=S)[nH]c4ccc(Br)cc4c3=O)cc2)CC1`, the cell number change is -4.48%. The AC50 under setting [1] is 1.16 µM [falling, full curve].
Regarding `COc1ccc(NC(=O)CCNC(=O)C2CCN(S(=O)(=O)c3ccc(F)cc3)CC2)cc1OC`, the cell number change stood at 45.6%. Moreover, the half-maximal activity concentration (AC50) under setting [2] is 9.2 µM [rising, partial curve]. For the same compound, the concentration at half-maximal activity (AC50) under setting [1] is 20.6 µM [rising, partial curve].
With `CCCCCC(=O)OCCc1c(C)nc2nc[nH]n2c1=O`, the cell number change was found to be 4.66%. Further, the AC50 under setting [2] was 6.51 µM [falling, partial curve, poor fit]. Moreover, the AC50 under setting [1] is 6.51 µM [falling, single point].
